Experimental data taken from paper PMC6925144, “A prospective compound screening contest identified broader inhibitors for Sirtuin 1” (Scientific Reports, 2019).
Over roughly 3,200 compounds, “TSA(without NAD+) / Primary screening (TSA) / delta Tm (K)” has its median near -0.07; the highest 2% begin near 0.37. Some of the results follow.

Sequences of proteins named here, by UniProt entry; tags and fusion partners are left off. Residues count along the entry.
UniProt Q96EB6, 2-747 limits assumed: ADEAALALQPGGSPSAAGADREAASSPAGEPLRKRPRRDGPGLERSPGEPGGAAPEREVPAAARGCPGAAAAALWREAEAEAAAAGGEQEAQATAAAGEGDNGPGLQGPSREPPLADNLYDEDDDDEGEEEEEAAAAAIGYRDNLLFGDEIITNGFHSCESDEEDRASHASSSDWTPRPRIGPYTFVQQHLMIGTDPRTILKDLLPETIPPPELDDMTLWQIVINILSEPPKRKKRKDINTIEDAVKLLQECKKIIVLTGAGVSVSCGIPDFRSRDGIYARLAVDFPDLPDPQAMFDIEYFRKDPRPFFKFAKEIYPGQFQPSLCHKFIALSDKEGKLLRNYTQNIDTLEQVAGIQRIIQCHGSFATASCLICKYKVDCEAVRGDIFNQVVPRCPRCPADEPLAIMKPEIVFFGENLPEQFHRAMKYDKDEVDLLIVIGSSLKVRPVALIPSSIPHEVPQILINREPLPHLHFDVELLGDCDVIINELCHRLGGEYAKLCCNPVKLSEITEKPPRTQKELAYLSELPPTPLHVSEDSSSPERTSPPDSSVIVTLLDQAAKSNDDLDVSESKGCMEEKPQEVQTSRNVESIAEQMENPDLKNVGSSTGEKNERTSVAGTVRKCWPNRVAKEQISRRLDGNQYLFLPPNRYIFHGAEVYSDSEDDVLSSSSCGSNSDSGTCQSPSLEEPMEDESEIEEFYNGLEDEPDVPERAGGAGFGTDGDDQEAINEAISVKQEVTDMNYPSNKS

target: NAD-dependent deacetylase Sirtuin 1 (human, UniProt Q96EB6); test: primary screen, delta tm; design: single well (n = 1); conditions: 10 µM
Procedure, shortened: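 Thermal shift of Sirtuin 1 measured without NAD+, compound at 10 µM (n = 1); value is ΔTm, with hits defined as ΔTm > 0.45 K or < −1.5 K. Hits retested at 5, 10, 20 µM (n = 4) and counterscreened on bovine carbonic anhydrase and ABL1 SH2 domain.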

| SMILES | TSA(without NAD+) / Primary screening (TSA) / delta Tm (K) |
| --- | --- |
| CC(N)c1nnn[nH]1 (stereo not shown) | -0.18 K |
| O=C1NCCN(C(=O)c2ccon2)C1c1ccc(C(F)(F)F)cc1 (stereo not shown) | -0.14 K |
| CCc1ccc(-c2nn(-c3ccccc3)cc2C=C2C(=O)NC(=O)NC2=O)cc1 | -0.62 K |
| CNC(=O)C(C)CN(C)c1ccc(C(F)(F)F)c(C#N)c1 (stereo not shown) | -0.28 K |
| O=C(Nc1ccccc1)C1CCN(C(=O)c2cc(-c3ccc(O)cc3)nc3ccccc23)CC1 | 0.08 K |
| Cc1cc(C=C2C(=O)NC(=S)NC2=O)c(C)n1-c1cccc(C(F)(F)F)c1 | -0.64 K |
| OC(COc1c(Cl)cccc1Cl)Cn1nnc(-c2cccnc2)n1 (stereo not shown) | -0.02 K |
| CN(c1ccccc1)S(=O)(=O)c1cccc(/N=C2/C(=O)Nc3ccc(Br)cc32)c1 | -0.92 K |
| COc1ccc(C(=O)O)cc1S(=O)(=O)Nc1cc(C(N)=O)cc(C(N)=O)c1 | -0.03 K |
| CC(C)OCc1ccc(C(=O)Nc2ccc(N3CCN(Cc4ccccc4)CC3)cc2)cc1 | -0.18 K |
| COc1ccc(C)cc1-n1ccc(C(=O)N2CCCc3c(C(N)=O)cccc32)n1 | -0.02 K |
| Cc1oc2nc[nH]c(=O)c2c1C(=O)OC(C)C(=O)N1CCOCC1 (stereo not shown) | -0.12 K |
| O=C(Nc1cccc(S(=O)(=O)N2CCOCC2)c1)c1cccc(S(=O)(=O)N2CCc3ccccc32)c1 | 0.37 K |
| Cc1cccc(N/C=C(/C(=O)c2ccccc2)C(=O)C(F)(F)F)c1 | -0.11 K |
| Cn1c(-c2ccccc2)c(C(=O)O)c2ccccc21 | 0.16 K |
| NC(=O)C1CCN(CCCNC(=O)Nc2cccc(N3CCNC3=O)c2)CC1 | -0.08 K |
| CCOCC(C)N (stereo not shown) | -0.24 K |
| O=C(CC(=O)N/N=C/c1ccc(O)cc1O)N/N=C/c1ccc(O)cc1O | 0.15 K |
| Cc1cccc(NC(=O)CN2CCN(C(=O)c3ccccc3C(=O)c3ccccc3)CC2)c1C | -0.07 K |
| CCCOc1ccc(C(=O)C2=C(O)C(=O)N(CCCN3CCOCC3)C2c2ccccn2)cc1 (stereo not shown) | 0.03 K |
| COc1ccc(N(C)S(=O)(=O)c2cccc(C(=O)OCCCC(=O)c3ccc(F)cc3)c2)cc1 | 0.06 K |
| COc1ccc(C(=O)C2=C(O)C(=O)N(CCCN3CCOCC3)C2c2ccccc2F)cc1 (stereo not shown) | 0.02 K |
| NC(=S)c1ccc(C(=O)NCc2ccnc(OCC(F)(F)F)c2)cc1 | -0.18 K |

| SMILES | TSA(without NAD+) / Primary screening (TSA) / delta Tm (K) |
| --- | --- |
| COc1ccc(NC(=O)COC(=O)c2ccccc2SCC(=O)NC23CC4CC(CC(C4)C2)C3)cc1OC | -0.22 K |
| Cc1c(-c2ccccc2)oc2c(C(=O)OCC(=O)NC34CC5CC(CC(C5)C3)C4)cccc2c1=O | -0.07 K |
| COc1ccc(CNCc2c[nH]nc2-c2ccc(C)cc2)cc1OC | -0.33 K |
| NCCC[C@H](N)C(=O)O | -0.22 K |
| CN(c1ccc(F)cc1)S(=O)(=O)c1cccc(-c2nnnn2C)c1 | 0.07 K |
| O=C(OCc1cccc2ccccc12)C1CCCCN1c1ncccn1 (stereo not shown) | -0.13 K |
| O=C(C1=C(O)C(=O)N(CCCN2CCOCC2)C1c1cccc([N+](=O)[O-])c1)c1ccco1 (stereo not shown) | -0.04 K |
| CCCN(CC)CCN | 0.05 K |
| NC(=O)c1ccc(COC(=O)c2ccccc2-c2ncc(-c3ccccc3)o2)cc1 | -0.12 K |
| CC(=O)c1cccc(NC(=O)c2ccc(CCNS(C)(=O)=O)s2)c1 | -0.13 K |
| CC(C)Oc1ccc(C2C(C(=O)c3ccco3)=C(O)C(=O)N2CCCN2CCOCC2)cc1 (stereo not shown) | -0.02 K |
| C=CCOCCN | -0.27 K |
| CC(OC(=O)C1CC(=O)N(Cc2ccco2)C1)C(=O)Nc1ccc(C(N)=O)cc1 (stereo not shown) | 0.06 K |
| CC(C)C(NC(=O)c1cnsn1)c1cccs1 (stereo not shown) | -0.11 K |
| Cc1c(C=C2C(=O)NC(=S)NC2=O)cnn1-c1ccccc1 | -0.07 K |
| Cc1nn(-c2cccc(C(F)(F)F)c2)c(C)c1C(=O)C(=O)N1CCNC(=O)C1 | -0.01 K |
| Cn1c(SCCc2ccccc2)nc2ccsc2c1=O | -0.33 K |
| O=C(COC(=O)C1=COCCO1)Nc1cccc2ccccc12 | -0.08 K |
| CCN(CC)c1ccc(NC(=O)CN2CCCC2C(=O)N(C)C)cc1 (stereo not shown) | -0.14 K |
| Cc1ccc(N(C)S(=O)(=O)c2cccc(C(=O)Oc3ccc4oc5ccccc5c4c3)c2)cc1 | -0.01 K |
| Cn1ccnc1C(NC(=O)c1ccc(O)c(Cl)c1)c1ccccc1F (stereo not shown) | -0.23 K |
| O=C(C1=C(O)C(=O)N(CCN2CCOCC2)C1c1ccco1)c1ccco1 (stereo not shown) | -0.15 K |
| O=C(CCc1c[nH]c2ccccc12)N1CCCC(c2nc3ccccc3[nH]2)C1 (stereo not shown) | 0.02 K |

| SMILES | TSA(without NAD+) / Primary screening (TSA) / delta Tm (K) |
| --- | --- |
| Cc1ccc(N(C)S(=O)(=O)c2cccc(C(=O)OCc3cc(=O)oc4c(C)c(C)ccc34)c2)cc1 | -0.38 K |
| COc1ccc(-n2ccc(C(=O)Nc3ccc4nc[nH]c(=O)c4c3)n2)cc1 | 0.12 K |
| C=Cn1c(N)c(C(=O)OCC)sc1=S | -0.18 K |
| N#Cc1ccc(CN2CCN(CC(=O)Nc3cc(Cl)ccc3-n3cncn3)CC2)cc1 | -0.07 K |
| Cc1ccc(CN(CCc2ccccc2)C(=O)Cc2c(C)nc(-c3ccccn3)[nH]c2=O)s1 | 0.18 K |
| O=c1c2ccncc2ncn1CC(O)c1cccc(F)c1 (stereo not shown) | -0.15 K |
| COc1ccc(C(N)=O)cc1NC(=O)c1ccccc1-c1nc(C(C)C)no1 | -0.14 K |
| O=C1COc2ccc(C(=O)CSc3nc(-c4ccccc4)c(-c4ccccc4)o3)cc2N1 | -0.03 K |
| COc1cccc(NC(=O)COc2ccc(C(=O)OCC(=O)NCCC3=CCCCC3)cc2)c1 | -0.21 K |
| Cc1ccc(N(C)S(=O)(=O)c2cccc(C(=O)Nc3sccc3C(N)=O)c2)cc1 | 0.17 K |
| CCOc1ccc(C2C(C(=O)c3ccc(OC)cc3)=C(O)C(=O)N2CCCN2CCOCC2)cc1 (stereo not shown) | 0.12 K |
| CC12CCC(C/C1=N/N=C1/CC3CCC1(C)C3(C)C)C2(C)C | -0.13 K |
| O=C(Nc1ccccc1Oc1ccccc1)c1cccc([N+](=O)[O-])c1 | -0.13 K |
| Cc1csc2c(NC3(CO)CCCC3)ncnc12 | -0.32 K |
| CC(NC(=O)c1ccccc1NC(=O)COC(=O)C12CC3CC(CC(O)(C3)C1)C2)c1ccccc1 (stereo not shown) | 0.12 K |
| CC(OC(=O)CNC(=O)C12CC3CC(CC(C3)C1)C2)C(=O)Nc1ccccc1-c1ccccc1 (stereo not shown) | -0.08 K |
| Cc1nc(S)sc1CC(=O)NCC1CCCS1(=O)=O (stereo not shown) | 0.02 K |
| Cc1nc2ccccc2c(=O)n1CC(=O)O | 0.07 K |
| COc1ccc(C2C(C(=O)/C=C/c3ccco3)=C(O)C(=O)N2CCCN2CCOCC2)cc1 (stereo not shown) | -0.01 K |
| Cc1cccc2[nH]c(CCC(=O)NCC(=O)Nc3cccnc3)nc12 | 0.02 K |
| CC(OC(=O)c1ccc(-c2ccc(O)cc2)cc1)C(=O)NCc1ccccc1 (stereo not shown) | -0.21 K |
| Cc1noc(C(C)N2CCN(Cc3cccc(C(N)=O)c3)CC2)n1 (stereo not shown) | -0.43 K |
| CCOC(=O)c1sc2nc(C)nc(N3CCN(c4ccc(O)cc4)CC3)c2c1C | -0.13 K |

| SMILES | TSA(without NAD+) / Primary screening (TSA) / delta Tm (K) |
| --- | --- |
| COc1ccc(C(=O)C2=C(O)C(=O)N(CCCN3CCOCC3)C2c2ccco2)cc1OC (stereo not shown) | -0.04 K |
| Cc1nccn1-c1ncnc2c1cnn2-c1ccccc1 | -0.24 K |
| CCOc1ccc(C2C(C(=O)c3ccc(C)o3)=C(O)C(=O)N2CCCN2CCOCC2)cc1OC (stereo not shown) | -0.11 K |
| C[C@@H](N)CO | 0.05 K |
| CCc1noc(CNc2cc(C(N)=O)ccc2OC)n1 | -0.03 K |
| O=C(CCn1[nH]c(=O)ccc1=O)Nc1ccc(Cl)cc1F | -0.01 K |
| NC(=O)c1cccc(CNCc2ccsc2)c1 | -0.08 K |
| COc1ccc(CNCc2ccc(C(N)=O)cc2)cc1 | 0.07 K |
| NC(=O)c1ccc(COC(=O)c2cc3c(ccc4ccccc43)[nH]2)cc1 | 0.05 K |
| O=C(c1cccc(Cl)c1)N1CCc2ccccc21 | -0.01 K |
| COc1ccccc1NS(=O)(=O)c1ccc(N2CCOCC2)c(NC(=S)NC(=O)C23CC4CC(CC(C4)C2)C3)c1 | 0.18 K |
| CCCC(C)C(=O)O (stereo not shown) | -0.22 K |
| Cc1ccc(NC(=O)C2=COCCO2)cc1S(=O)(=O)N1CCOCC1 | 0.09 K |
| NNC(=O)Cc1ccc(Cl)cc1 | -0.08 K |
| CCOc1ccc(CCNC(=O)COC(=O)CNC(=O)C23CC4CC(CC(C4)C2)C3)cc1OCC | 0.03 K |
| CC1CCc2[nH]c3ccc(C(=O)OCC(=O)NC(=O)NC45CC6CC(CC(C6)C4)C5)cc3c2C1 (stereo not shown) | 0.27 K |
| COc1ccc(C(=O)C2=C(O)C(=O)N(CCCN3CCOCC3)C2c2ccccc2)cc1OC (stereo not shown) | -0.21 K |
| COc1ccc(CCC(=O)Nc2cc(S(=O)(=O)N3CCCCC3)ccc2OC(C)C)cc1OC | 0.02 K |
| CSc1cccc(NC(=O)c2cccc(S(=O)(=O)N(C)c3ccc(C)cc3)c2)c1 | 0.35 K |
| CCOC(=O)/C=C/C(=O)OCC(=O)N1N=C2/C(=C\c3ccc(OC)cc3)CCCC2C1c1ccc(OC)cc1 (stereo not shown) | 0.08 K |
| NC(=O)COC(=O)c1ccc(SCc2cn3ccccc3n2)cc1 | 0.07 K |
| N#Cc1ccc2[nH]c3c(c2c1)CCCC3 | -0.08 K |

7 entries drawn at random from the list so far:

| SMILES | TSA(without NAD+) / Primary screening (TSA) / delta Tm (K) |
| --- | --- |
| NC(=O)c1ccc(COC(=O)c2cc3c(ccc4ccccc43)[nH]2)cc1 | 0.05 K |
| O=C(CCn1[nH]c(=O)ccc1=O)Nc1ccc(Cl)cc1F | -0.01 K |
| NNC(=O)Cc1ccc(Cl)cc1 | -0.08 K |
| CCCC(C)C(=O)O (stereo not shown) | -0.22 K |
| COc1ccc(C(=O)C2=C(O)C(=O)N(CCCN3CCOCC3)C2c2ccccc2)cc1OC (stereo not shown) | -0.21 K |
| CC1CCc2[nH]c3ccc(C(=O)OCC(=O)NC(=O)NC45CC6CC(CC(C6)C4)C5)cc3c2C1 (stereo not shown) | 0.27 K |
| COc1ccc(CCC(=O)Nc2cc(S(=O)(=O)N3CCCCC3)ccc2OC(C)C)cc1OC | 0.02 K |
